Each structure is given as a SMILES string. Some of the results follow. These are further read-outs of the screen, such as a control signal, another cell line or another target. No call is given for them. The list favours compounds with an active or inconclusive main result. Words in brackets tell the shape of the fitted curve; partial curves, single points and poor fits give uncertain potencies.

A short description of the assay: qHTS Assay to Find Inhibitors of Chronic Active B-Cell Receptor Signaling. Particulars: ABC-DLBCL IkBa-CBG/CBR reporter, luminescence ratio (green luciferase fused to IkBa over red control in TMD8 lymphoma cells), 4 h. The method, boiled down:
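TMD8 human ABC-DLBCL cells with doxycycline-inducible IκBα–green luciferase fusion and unfused red luciferase, in 0.5% FBS medium; compounds up to 46 uM, 4 h at 37C. Green/red luminescence ratio, filter-overlap corrected, fitted to concentration-response curves.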

Setting [1] is: measured here: CBR red luminescence, cell number.
[2] abbreviates: measured here: IkBa-CBG green luminescence.

By AC50 is commonly meant the midpoint of the concentration-response curve, whichever way the signal moves. Consider `Cc1ccc2c(c1)OC(=O)CC2c1ccccc1` (centres undefined), for which, under setting [1], the half-maximal activity concentration (AC50) is 23.1 µM [rising, single point].
Same read-out and setting: with `COc1cc(CNCCN2CCOCC2)ccc1OCc1c(Cl)cccc1Cl` the figure was 10.3 µM [falling, partial curve, poor fit]; with `COc1ccc(-c2csc3ncn(Cc4ccccc4)c(=O)c23)cc1`, 35.5 µM [falling, single point].
`Cc1c(Nc2cc(Cl)c3nonc3c2[N+](=O)[O-])c(=O)n(-c2ccccc2)n1C`: the AC50 was 10 µM [falling, partial curve] under setting [1] and 6.31 µM [rising, full curve, poor fit] under setting [2].
In the case of `CC(=O)Nc1c(C(=O)Nc2ccc3c(c2)OCO3)oc2ccccc12`, the AC50 under setting [1] is 8.91 µM [falling, partial curve, poor fit].
As for `Cc1csc(NC(=O)CSc2nnc(-c3ccoc3C)o2)n1`, under setting [1], the concentration at half-maximal activity (AC50) is 29.1 µM [falling, single point].
As to `Cc1nnc(SCC(=O)N(C)C2CCCCC2)n1C`, the concentration at half-maximal activity (AC50) under setting [1] is 29.1 µM [rising, single point].
On to `Nc1ccccc1Sc1nc2ccccc2[nH]1`, for which the concentration at half-maximal activity (AC50) is 12.6 µM [falling, partial curve] under setting [1] and 35.5 µM [rising, partial curve, poor fit] under setting [2].
On to `COc1ccc2c(c1)C(=O)N(c1ccccc1OC)C(=O)C2(C)C`, for which the AC50 under setting [1] is 35.5 µM [rising, single point].
Still for that read-out and setting: with `C#CCOc1ccc2c(C)cc(=O)oc2c1` the figure was 3.55 µM [rising, full curve, poor fit]; with `O=C(NCc1ccccc1)C1=C[C@@H](c2csc3ccccc23)C[C@@H](OCCCCO)O1`, 35.5 µM [falling, single point].
Turning to `Cc1ccc(NC(=S)N2CCC(c3ccccc3)C2)c(Cl)c1` (centres undefined), the AC50 under setting [1] is 0.355 µM [rising, full curve, poor fit].
The same measure, in the same setting: in the case of `NNC(=O)c1ccc([N+](=O)[O-])c(CS(=O)(=O)c2ccc(Cl)cc2)c1` it was 2.82 µM [rising, partial curve, poor fit]; in that of `CC(=O)Nc1cccc(NC(=O)Nc2ccc(C(C)=O)cc2)c1`, 13 µM [falling, partial curve, poor fit]; in that of `O=C(O)C(Cc1c[nH]c2ccccc12)N1Cc2ccccc2C1=O` (centres undefined), 11.2 µM [falling, partial curve].
Take `O=C(NC(=S)NCC1CCCO1)c1ccccc1` (centres undefined): under setting [1], the AC50 was 20.6 µM [rising, single point].
For the compound `N#C/C(=C\c1c(N2CCCCC2)nc2ccccn2c1=O)S(=O)(=O)c1ccccc1`, the AC50 by setting is: under setting [1], 1 µM [falling, full curve, poor fit]; under setting [2], 2.82 µM [rising, full curve].
In the case of `Cc1ccc(S(=O)(=O)C2C(=O)NC3(C)CC2c2ccccc2O3)cc1` (centres undefined), the AC50 under setting [1] is 29.1 µM [falling, single point].
As for `CCC(C)NC(=O)c1cc(-c2ccc(OC)cc2)on1` (centres undefined), the AC50 under setting [1] was 8.2 µM [falling, partial curve, poor fit].
On the same count and under the same terms, in the case of `CN(C)c1ccc(/C=N/Nc2ccc(-n3ccnc3)nn2)cc1` it was 29.1 µM [rising, single point]; in that of `COc1ccc(NC(=S)N(CCO)Cc2cc3c(C)cc(C)cc3[nH]c2=O)cc1`, 28.2 µM [falling, single point].
Still for that read-out and setting: with `CCOC(=O)/C=C/C(=O)OCC(=O)Nc1ccc([N+](=O)[O-])cc1` the figure was 22.4 µM [rising, single point]; with `c1ccc2c(c1)CNC1(CCCCC1)C2`, 2.31 µM [rising, partial curve, poor fit].
Same read-out and setting: with `Cc1ccc(C)c(NC(=S)N/N=C/C(C)c2ccccc2)c1` (centres undefined) the figure was 12.6 µM [rising, single point].
With `COC(=O)c1cc2c(ccn2-c2ccc(F)cc2)n1Cc1ccc(C#N)cc1`, the AC50 under setting [1] was 2.31 µM [rising, full curve].
Same read-out and setting: with `CC(=O)Nc1ccc(Nc2ccc(N3C(=O)CCCC3=O)cc2[N+](=O)[O-])cc1` the figure was 18.4 µM [rising, partial curve, poor fit].
`COc1ccc(-c2cn3c(C)c(C(=O)NCCN4CCOCC4)sc3n2)cc1`: the concentration at half-maximal activity (AC50) under setting [1] is 8.91 µM [falling, partial curve, poor fit].
On the same count and under the same terms, with `CC(C)(O)C#Cc1ccc(C(=O)N2CCN(c3ccc(F)cc3)CC2)cc1` the figure was 25.1 µM [falling, single point].
Still for that read-out and setting: in the case of `C=C(C)C(=O)Oc1ccc(N2C(=O)CCC2=O)cc1` it was 12.6 µM [falling, partial curve, poor fit].
With `COc1ccc(OCCC(=O)OCC(=O)NCc2ccco2)cc1`, the AC50 is 35.5 µM [falling, single point] under setting [1] and 17.8 µM [rising, partial curve, poor fit] under setting [2].
Take `CC(=O)Nc1nnc(SCc2ccc(C(=O)Nc3ccccc3F)cc2)s1`: under setting [1], the AC50 is 3.98 µM [falling, partial curve].
Still for that read-out and setting: in the case of `CC1(C)CC(NC(=O)C2CCCCC2)CC(C)(C)N1` it was 12.6 µM [falling, partial curve]; in that of `CCCCn1nnc(NC(=O)c2ccc(-c3cccc(Cl)c3)o2)n1`, 35.5 µM [falling, single point]; in that of `COc1ccc(C(=O)NCCSc2ccccc2)cc1`, 5.8 µM [rising, partial curve, poor fit].
Still for that read-out and setting: with `COc1ccc(NC2CC(=O)N(c3cccc([N+](=O)[O-])c3)C2=O)cc1` (centres undefined) the figure was 1 µM [rising, full curve, poor fit].
On to `Cc1occc1C(=O)N/N=C/c1ccc(OCc2ccccc2)cc1`, for which the AC50 under setting [1] is 11.2 µM [falling, partial curve].
Same read-out and setting: with `CCCCSc1nnc2c(n1)OC=Nc1ccccc1-2` the figure was 11.2 µM [falling, partial curve]; with `CCc1ccccc1NC(=S)NN`, 35.5 µM [falling, single point].
Still for that read-out and setting: in the case of `C/C(=N\NC(=O)c1cccc(N/N=C(\C)c2ccc([N+](=O)[O-])cc2)c1)c1ccc([N+](=O)[O-])cc1` it was 10 µM [falling, partial curve, poor fit].
The same measure, in the same setting: in the case of `COc1cc(C2Nc3ccccc3C(=O)N2c2ccc3c(c2)OCCO3)ccc1OCC(C)C` (centres undefined) it was 29.1 µM [falling, single point].

(Values after PubChem BioAssay AID493014 (National Center for Advancing Translational Sciences (NCATS), 2011).)
